# Reference: publication PMC6160419
# Protein sequences, listed by entry. Tags and fused reporters are not part of them.
# UniProt Q9H5H4: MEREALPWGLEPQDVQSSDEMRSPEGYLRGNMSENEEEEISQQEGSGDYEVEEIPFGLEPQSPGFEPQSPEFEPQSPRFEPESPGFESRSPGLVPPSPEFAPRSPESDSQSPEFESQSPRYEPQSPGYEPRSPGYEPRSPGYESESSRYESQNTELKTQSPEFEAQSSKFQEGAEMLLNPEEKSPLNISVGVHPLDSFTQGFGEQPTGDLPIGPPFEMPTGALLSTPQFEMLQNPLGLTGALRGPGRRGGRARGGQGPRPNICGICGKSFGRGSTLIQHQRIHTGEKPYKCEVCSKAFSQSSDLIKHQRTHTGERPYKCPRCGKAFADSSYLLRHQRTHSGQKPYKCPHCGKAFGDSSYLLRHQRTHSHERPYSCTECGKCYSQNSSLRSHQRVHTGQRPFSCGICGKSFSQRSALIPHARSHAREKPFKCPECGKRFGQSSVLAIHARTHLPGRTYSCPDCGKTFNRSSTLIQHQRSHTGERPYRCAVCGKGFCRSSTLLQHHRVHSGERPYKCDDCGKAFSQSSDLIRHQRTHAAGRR
# UniProt Q9P2B7: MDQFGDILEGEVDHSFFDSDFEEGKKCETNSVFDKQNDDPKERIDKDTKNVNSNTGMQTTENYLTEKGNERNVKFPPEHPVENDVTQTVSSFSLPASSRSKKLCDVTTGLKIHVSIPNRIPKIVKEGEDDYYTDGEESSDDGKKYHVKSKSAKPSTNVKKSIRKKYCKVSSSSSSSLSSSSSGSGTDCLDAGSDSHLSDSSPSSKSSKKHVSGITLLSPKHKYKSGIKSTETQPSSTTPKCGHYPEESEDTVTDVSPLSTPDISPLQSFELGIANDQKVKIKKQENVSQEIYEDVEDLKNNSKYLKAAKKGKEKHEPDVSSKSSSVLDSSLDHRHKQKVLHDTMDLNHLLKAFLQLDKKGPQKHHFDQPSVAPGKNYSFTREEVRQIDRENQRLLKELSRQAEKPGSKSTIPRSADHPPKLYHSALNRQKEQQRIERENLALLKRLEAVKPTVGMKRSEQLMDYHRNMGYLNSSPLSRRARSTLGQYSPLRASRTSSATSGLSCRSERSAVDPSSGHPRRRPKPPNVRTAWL
# UniProt O75179: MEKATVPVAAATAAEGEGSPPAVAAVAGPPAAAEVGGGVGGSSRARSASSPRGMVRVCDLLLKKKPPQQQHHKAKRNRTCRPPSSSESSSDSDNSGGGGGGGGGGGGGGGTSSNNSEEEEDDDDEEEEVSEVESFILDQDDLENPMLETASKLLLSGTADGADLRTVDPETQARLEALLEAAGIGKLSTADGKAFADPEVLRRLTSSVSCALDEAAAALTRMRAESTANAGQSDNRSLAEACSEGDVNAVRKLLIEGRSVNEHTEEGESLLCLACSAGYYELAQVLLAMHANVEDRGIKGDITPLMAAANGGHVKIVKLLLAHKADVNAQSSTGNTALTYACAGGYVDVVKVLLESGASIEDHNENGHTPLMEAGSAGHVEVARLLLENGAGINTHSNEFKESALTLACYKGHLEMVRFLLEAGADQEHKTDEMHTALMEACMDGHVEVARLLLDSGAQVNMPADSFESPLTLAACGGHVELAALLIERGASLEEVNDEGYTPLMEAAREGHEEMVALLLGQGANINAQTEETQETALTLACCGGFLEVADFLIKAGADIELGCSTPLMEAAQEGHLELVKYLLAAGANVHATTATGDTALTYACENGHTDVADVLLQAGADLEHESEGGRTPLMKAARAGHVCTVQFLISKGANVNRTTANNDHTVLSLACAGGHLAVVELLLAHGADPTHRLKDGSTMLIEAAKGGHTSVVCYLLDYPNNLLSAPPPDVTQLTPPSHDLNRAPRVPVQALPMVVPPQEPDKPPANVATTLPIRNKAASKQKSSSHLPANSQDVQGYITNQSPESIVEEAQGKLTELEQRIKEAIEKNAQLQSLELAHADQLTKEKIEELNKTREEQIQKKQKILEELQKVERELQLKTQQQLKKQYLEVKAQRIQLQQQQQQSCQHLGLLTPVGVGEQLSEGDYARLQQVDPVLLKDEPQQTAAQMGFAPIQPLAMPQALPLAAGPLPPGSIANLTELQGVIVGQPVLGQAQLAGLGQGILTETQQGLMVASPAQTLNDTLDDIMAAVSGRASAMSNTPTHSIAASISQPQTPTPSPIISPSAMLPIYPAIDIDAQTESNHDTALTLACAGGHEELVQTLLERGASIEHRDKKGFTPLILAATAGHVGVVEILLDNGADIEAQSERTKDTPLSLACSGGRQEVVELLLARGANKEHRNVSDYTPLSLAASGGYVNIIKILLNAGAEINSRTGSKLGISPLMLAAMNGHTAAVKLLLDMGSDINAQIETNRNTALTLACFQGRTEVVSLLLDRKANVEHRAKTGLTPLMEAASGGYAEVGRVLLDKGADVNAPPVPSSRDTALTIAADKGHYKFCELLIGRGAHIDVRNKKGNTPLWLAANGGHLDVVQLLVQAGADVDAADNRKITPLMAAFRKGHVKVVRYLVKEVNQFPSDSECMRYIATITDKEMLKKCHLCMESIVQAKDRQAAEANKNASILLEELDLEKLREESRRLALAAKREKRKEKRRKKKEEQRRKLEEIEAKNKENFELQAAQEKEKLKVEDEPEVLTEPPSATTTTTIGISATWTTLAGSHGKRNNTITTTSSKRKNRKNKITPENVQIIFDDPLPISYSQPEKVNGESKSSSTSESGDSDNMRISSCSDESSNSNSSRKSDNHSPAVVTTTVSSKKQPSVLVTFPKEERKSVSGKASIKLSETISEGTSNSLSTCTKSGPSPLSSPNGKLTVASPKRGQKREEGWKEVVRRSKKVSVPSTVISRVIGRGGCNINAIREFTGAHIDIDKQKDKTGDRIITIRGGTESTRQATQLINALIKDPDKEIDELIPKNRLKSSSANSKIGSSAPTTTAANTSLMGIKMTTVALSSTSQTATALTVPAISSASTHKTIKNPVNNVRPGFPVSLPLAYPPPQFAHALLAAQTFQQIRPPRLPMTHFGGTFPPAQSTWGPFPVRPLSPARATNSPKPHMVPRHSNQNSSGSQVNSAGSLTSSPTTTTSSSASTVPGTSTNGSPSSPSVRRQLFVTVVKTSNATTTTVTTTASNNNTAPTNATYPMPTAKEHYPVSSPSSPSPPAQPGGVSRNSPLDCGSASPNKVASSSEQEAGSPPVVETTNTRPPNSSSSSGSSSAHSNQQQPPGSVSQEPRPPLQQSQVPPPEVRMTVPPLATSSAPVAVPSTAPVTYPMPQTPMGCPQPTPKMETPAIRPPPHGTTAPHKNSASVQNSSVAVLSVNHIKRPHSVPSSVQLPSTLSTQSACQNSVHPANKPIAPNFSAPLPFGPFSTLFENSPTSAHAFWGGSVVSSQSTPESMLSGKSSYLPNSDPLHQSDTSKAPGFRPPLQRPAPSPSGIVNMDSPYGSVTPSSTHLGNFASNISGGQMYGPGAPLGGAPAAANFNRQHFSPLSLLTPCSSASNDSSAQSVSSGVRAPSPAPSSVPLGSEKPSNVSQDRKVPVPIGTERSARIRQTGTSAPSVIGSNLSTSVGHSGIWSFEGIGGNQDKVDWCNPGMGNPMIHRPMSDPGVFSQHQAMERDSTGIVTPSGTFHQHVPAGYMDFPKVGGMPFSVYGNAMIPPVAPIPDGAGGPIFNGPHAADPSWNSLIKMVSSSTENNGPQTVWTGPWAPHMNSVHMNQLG
# These are yes or no findings as the source states them, for the method shown. Binding seen in cells or lysates may run through a third protein. These calls come from enrichment with a bait or labelling near it, and not all partners need be listed.
# T1: FAM13A (human) (UniProt O94988)
# T1 sequence: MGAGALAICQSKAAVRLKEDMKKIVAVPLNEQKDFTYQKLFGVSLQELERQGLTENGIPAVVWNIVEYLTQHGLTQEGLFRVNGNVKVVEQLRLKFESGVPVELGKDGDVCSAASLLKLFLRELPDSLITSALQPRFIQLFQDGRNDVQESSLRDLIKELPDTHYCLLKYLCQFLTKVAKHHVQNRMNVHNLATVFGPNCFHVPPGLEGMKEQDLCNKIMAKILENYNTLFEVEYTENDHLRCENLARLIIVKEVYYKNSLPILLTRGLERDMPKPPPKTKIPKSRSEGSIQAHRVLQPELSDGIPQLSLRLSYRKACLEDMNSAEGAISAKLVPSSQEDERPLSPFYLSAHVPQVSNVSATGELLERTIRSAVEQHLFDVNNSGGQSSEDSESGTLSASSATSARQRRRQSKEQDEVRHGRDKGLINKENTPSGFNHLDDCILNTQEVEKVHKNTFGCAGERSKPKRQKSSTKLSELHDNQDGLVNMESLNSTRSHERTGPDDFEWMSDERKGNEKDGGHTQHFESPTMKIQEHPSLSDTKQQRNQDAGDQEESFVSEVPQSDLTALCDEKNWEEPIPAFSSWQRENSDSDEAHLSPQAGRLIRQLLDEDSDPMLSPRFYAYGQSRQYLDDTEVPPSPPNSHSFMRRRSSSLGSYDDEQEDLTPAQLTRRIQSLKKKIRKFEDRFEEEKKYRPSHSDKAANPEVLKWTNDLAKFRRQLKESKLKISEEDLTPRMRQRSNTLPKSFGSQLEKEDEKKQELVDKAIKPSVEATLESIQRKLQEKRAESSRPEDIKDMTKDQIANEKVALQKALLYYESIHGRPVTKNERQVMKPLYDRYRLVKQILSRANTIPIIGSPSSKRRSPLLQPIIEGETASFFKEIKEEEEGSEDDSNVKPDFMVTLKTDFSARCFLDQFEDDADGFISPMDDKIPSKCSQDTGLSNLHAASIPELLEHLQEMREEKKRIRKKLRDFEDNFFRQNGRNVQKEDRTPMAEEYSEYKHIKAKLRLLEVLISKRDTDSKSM
# B1: AP3D1 (protein, UniProt O14617 1-1153)
# chain: MALKMVKGSIDRMFDKNLQDLVRGIRNHKEDEAKYISQCIDEIKQELKQDNIAVKANAVCKLTYLQMLGYDISWAAFNIIEVMSASKFTFKRIGYLAASQSFHEGTDVIMLTTNQIRKDLSSPSQYDTGVALTGLSCFVTPDLARDLANDIMTLMSHTKPYIRKKAVLIMYKVFLKYPESLRPAFPRLKEKLEDPDPGVQSAAVNVICELARRNPKNYLSLAPLFFKLMTSSTNNWVLIKIIKLFGALTPLEPRLGKKLIEPLTNLIHSTSAMSLLYECVNTVIAVLISLSSGMPNHSASIQLCVQKLRILIEDSDQNLKYLGLLAMSKILKTHPKSVQSHKDLILQCLDDKDESIRLRALDLLYGMVSKKNLMEIVKKLMTHVDKAEGTTYRDELLTKIIDICSQSNYQYITNFEWYISILVELTRLEGTRHGHLIAAQMLDVAIRVKAIRKFAVSQMSALLDSAHLLASSTQRNGICEVLYAAAWICGEFSEHLQEPHHTLEAMLRPRVTTLPGHIQAVYVQNVVKLYASILQQKEQAGEAEGAQAVTQLMVDRLPQFVQSADLEVQERASCILQLVKHIQKLQAKDVPVAEEVSALFAGELNPVAPKAQKKVPVPEGLDLDAWINEPLSDSESEDERPRAVFHEEEQRRPKHRPSEADEEELARRREARKQEQANNPFYIKSSPSPQKRYQDTPGVEHIPVVQIDLSVPLKVPGLPMSDQYVKLEEERRHRQKLEKDKRRKKRKEKEKKGKRRHSSLPTESDEDIAPAQQVDIVTEEMPENALPSDEDDKDPNDPYRALDIDLDKPLADSEKLPIQKHRNTETSKSPEKDVPMVEKKSKKPKKKEKKHKEKERDKEKKKEKEKKKSPKPKKKKHRKEKEERTKGKKKSKKQPPGSEEAAGEPVQNGAPEEEQLPPESSYSLLAENSYVKMTCDIRGSLQEDSQVTVAIVLENRSSSILKGMELSVLDSLNARMARPQGSSVHDGVPVPFQLPPGVSNEAQYVFTIQSIVMAQKLKGTLSFIAKNDEGATHEKLDFRLHFSCSSYLITTPCYSDAFAKLLESGDLSMSSIKVDGIRMSFQNLLAKICFHHHFSVVERVDSCASMYSRSIQGHHVCLLVKKGENSVSVDGKCSDSTLLSNLLEEMKATLAKC
# B2: RBM34 (protein, UniProt P42696 1-430)
# chain: MALEGMSKRKRKRSVQEGENPDDGVRGSPPEDYRLGQVASSLFRGEHHSRGGTGRLASLFSSLEPQIQPVYVPVPKQTIKKTKRNEEEESTSQIERPLSQEPAKKVKAKKKHTNAEKKLADRESALASADLEEEIHQKQGQKRKNSQPGVKVADRKILDDTEDTVVSQRKKIQINQEEERLKNERTVFVGNLPVTCNKKKLKSFFKEYGQIESVRFRSLIPAEGTLSKKLAAIKRKIHPDQKNINAYVVFKEESAATQALKRNGAQIADGFRIRVDLASETSSRDKRSVFVGNLPYKVEESAIEKHFLDCGSIMAVRIVRDKMTGIGKGFGYVLFENTDSVHLALKLNNSELMGRKLRVMRSVNKEKFKQQNSNPRLKNVSKPKQGLNFTSKTAEGHPKSLFIGEKAVLLKTKKKGQKKSGRPKKQRKQK
# B3: ESF1 (protein, UniProt Q9H501 1-851)
# chain: MSSKQEIMSDQRFRRVAKDPRFWEMPEKDRKVKIDKRFRAMFHDKKFKLNYAVDKRGRPISHSTTEDLKRFYDLSDSDSNLSGEDSKALSQKKIKKKKTQTKKEIDSKNLVEKKKETKKANHKGSENKTDLDNSIGIKKMKTSCKFKIDSNISPKKDSKEFTQKNKKEKKNIVQHTTDSSLEEKQRTLDSGTSEIVKSPRIECSKTRREMQSVVQLIMTRDSDGYENSTDGEMCDKDALEEDSESVSEIGSDEESENEITSVGRASGDDDGSEDDEEEDEDEEEDEDEDSEDDDKSDSGPDLARGKGNIETSSEDEDDTADLFPEESGFEHAWRELDKDAPRADEITRRLAVCNMDWDRLKAKDLLALFNSFKPKGGVIFSVKIYPSEFGKERMKEEQVQGPVELLSIPEDAPEKDWTSREKLRDYQFKRLKYYYAVVDCDSPETASKIYEDCDGLEFESSCSFIDLRFIPDDITFDDEPKDVASEVNLTAYKPKYFTSAAMGTSTVEITWDETDHERITMLNRKFKKEELLDMDFQAYLASSSEDEEEIEEELQGDDGVNVEEDGKTKKSQKDDEEQIAKYRQLLQVIQEKEKKGKENDMEMEIKWVPGLKESAEEMVKNKLEGKDKLTPWEQFLEKKKEKKRLKRKQKALAEEASEEELPSDVDLNDPYFAEEVKQIGINKKSVKSAKDGTSPEEEIEIERQKAEMALLMMDEDEDSKKHFNYNKIVEHQNLSKKKKKQLMKKKELIEDDFEVNVNDARFQAMYTSHLFNLDPSDPNFKKTKAMEKILEEKARQRERKEQELTQAIKKKESEIEKESQRKSIDPALSMLIKSIKTKTEQFQARKKQKVK
# B4: NIP7 (protein, UniProt Q9Y221 1-180)
# chain: MRPLTEEETRVMFEKIAKYIGENLQLLVDRPDGTYCFRLHNDRVYYVSEKIMKLAANISGDKLVSLGTCFGKFTKTHKFRLHVTALDYLAPYAKYKVWIKPGAEQSFLYGNHVLKSGLGRITENTSQYQGVVVYSMADIPLGFGVAAKSTQDCRKVDPMAIVVFHQADIGEYVRHEETLT
# B5: GPC4 (protein, UniProt O75487 19-529)
# chain: ALLAAELKSKSCSEVRRLYVSKGFNKNDAPLHEINGDHLKICPQGSTCCSQEMEEKYSLQSKDDFKSVVSEQCNHLQAVFASRYKKFDEFFKELLENAEKSLNDMFVKTYGHLYMQNSELFKDLFVELKRYYVVGNVNLEEMLNDFWARLLERMFRLVNSQYHFTDEYLECVSKYTEQLKPFGDVPRKLKLQVTRAFVAARTFAQGLAVAGDVVSKVSVVNPTAQCTHALLKMIYCSHCRGLVTVKPCYNYCSNIMRGCLANQGDLDFEWNNFIDAMLMVAERLEGPFNIESVMDPIDVKISDAIMNMQDNSVQVSQKVFQGCGPPKPLPAGRISRSISESAFSARFRPHHPEERPTTAAGTSLDRLVTDVKEKLKQAKKFWSSLPSNVCNDERMAAGNGNEDDCWNGKGKSRYLFAVTGNGLANQGNNPEVQVDTSKPDILILRQIMALRVMTSKMKNAYNGNDVDFFDISDESSGEGSGSGCEYQQCPSEFDYNATDHAGKSANEKADS
# B6: OSBPL8 (protein, UniProt Q9BZF1 1-889)
# chain: MEGGLADGEPDRTSLLGDSKDVLGPSTVVANSDESQLLTPGKMSQRQGKEAYPTPTKDLHQPSLSPASPHSQGFERGKEDISQNKDESSLSMSKSKSESKLYNGSEKDSSTSSKLTKKESLKVQKKNYREEKKRATKELLSTITDPSVIVMADWLKIRGTLKSWTKLWCVLKPGVLLIYKTQKNGQWVGTVLLNACEIIERPSKKDGFCFKLFHPLEQSIWAVKGPKGEAVGSITQPLPSSYLIIRATSESDGRCWMDALELALKCSSLLKRTMIREGKEHDLSVSSDSTHVTFYGLLRANNLHSGDNFQLNDSEIERQHFKDQDMYSDKSDKENDQEHDESDNEVMGKSEESDTDTSERQDDSYIEPEPVEPLKETTYTEQSHEELGEAGEASQTETVSEENKSLIWTLLKQVRPGMDLSKVVLPTFILEPRSFLDKLSDYYYHADFLSEAALEENPYFRLKKVVKWYLSGFYKKPKGLKKPYNPILGETFRCLWIHPRTNSKTFYIAEQVSHHPPISAFYVSNRKDGFCLSGSILAKSKFYGNSLSAILEGEARLTFLNRGEDYVMTMPYAHCKGILYGTMTLELGGTVNITCQKTGYSAILEFKLKPFLGSSDCVNQISGKLKLGKEVLATLEGHWDSEVFITDKKTDNSEVFWNPTPDIKQWRLIRHTVKFEEQGDFESEKLWQRVTRAINAKDQTEATQEKYVLEEAQRQAARDRKTKNEEWSCKLFELDPLTGEWHYKFADTRPWDPLNDMIQFEKDGVIQTKVKHRTPMVSVPKMKHKPTRQQKKVAKGYSSPEPDIQDSSGSEAQSVKPSTRRKKGIELGDIQSSIESIKQTQEEIKRNIMALRNHLVSSTPATDYFLQQKDYFIIFLLILLQVIINFMFK
# Molecular target: T1, FAM13A (human)
# Assay: affinity purification with mass spectrometry; pull-down assay with FAM13A as bait, affinity purification-mass spectrometry; no conditions told; the methods say it was performed previously (ref. 23)
row,binding,Molecule
1,binds,ZNF768 (from UniProt Q9H5H4 1-540)
2,binds,KIAA1430 (from UniProt Q9P2B7 1-532)
3,binds,ANKRD17 (from UniProt O75179 1-2603)
4,binds,B1
5,binds,B2
6,binds,B3
7,binds,B4
8,binds,B5
9,binds,B6
